In ChEMBL document CHEMBL1149526, “Synthesis and SAR of selective benzothiophene, benzofuran, and indole-based peroxisome proliferator-activated receptor delta agonists” (Bioorg Med Chem Lett, 2007):

Molecular target: T1, Peroxisome proliferator-activated receptor gamma (Homo sapiens, UniProt P37231)
T1 sequence (P37231 whole entry): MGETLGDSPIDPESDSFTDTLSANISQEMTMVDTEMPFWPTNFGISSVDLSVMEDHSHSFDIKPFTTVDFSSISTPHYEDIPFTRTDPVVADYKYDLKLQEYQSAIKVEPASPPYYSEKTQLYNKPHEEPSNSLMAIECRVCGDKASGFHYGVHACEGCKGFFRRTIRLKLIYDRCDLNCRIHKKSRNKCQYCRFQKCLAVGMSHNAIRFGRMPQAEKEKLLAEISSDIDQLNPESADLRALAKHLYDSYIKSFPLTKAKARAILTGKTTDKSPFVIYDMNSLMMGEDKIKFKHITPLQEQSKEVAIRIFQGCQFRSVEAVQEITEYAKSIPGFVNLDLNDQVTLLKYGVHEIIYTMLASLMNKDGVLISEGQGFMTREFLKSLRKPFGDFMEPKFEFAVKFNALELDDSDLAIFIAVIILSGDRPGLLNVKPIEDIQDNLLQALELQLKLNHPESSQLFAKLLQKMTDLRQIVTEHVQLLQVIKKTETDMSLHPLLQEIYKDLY

SMILES	IC50
O=C(O)Cn1ccc2cc(OCc3ccccc3COc3ccc(C(F)(F)F)cc3)ccc21	> 10 µM
O=C(O)Cn1ccc2cc(OCc3cccc(COc4ccc(C(F)(F)F)cc4)c3)ccc21	> 10 µM
Cc1nc(C(F)(F)F)sc1CSc1ccc2c(ccn2CC(=O)O)c1	> 10 µM
Cc1nc(-c2ccc(C(F)(F)F)cc2)sc1COc1ccc2c(CC(=O)O)csc2c1	> 10 µM
O=C(O)Cc1csc2cc(OCc3cc(-c4ccc(Cl)cc4)on3)ccc12	> 10 µM
O=C(O)Cc1coc2cc(OCc3cc(-c4ccc(C(F)(F)F)cc4)on3)ccc12	> 10 µM
Cc1nc(-c2ccc(C(F)(F)F)cc2)sc1COc1cc(Cl)c2c(CC(=O)O)csc2c1	> 10 µM
Cc1cc(OCc2cc(-c3ccc(C(F)(F)F)cc3)on2)cc2scc(CC(=O)O)c12	> 10 µM
O=C(O)Cc1csc2cc(OCc3ccccc3COc3ccc(C(F)(F)F)cc3)ccc12	> 10 µM
O=C(O)Cc1coc2cc(OCc3ccc(COc4ccc(C(F)(F)F)cc4)cc3)ccc12	> 10 µM
Cc1nc(C(F)(F)F)sc1COc1ccc2c(ccn2CC(=O)O)c1	> 10 µM
O=C(O)Cc1coc2cc(OCc3cc(-c4ccc(Cl)cc4)on3)ccc12	> 10 µM
O=C(O)Cn1ccc2cc(OCc3ccc(Oc4ccc(C(F)(F)F)cc4)cc3)ccc21	> 10 µM
O=C(O)Cc1coc2cc(OCc3ccccc3COc3ccc(C(F)(F)F)cc3)ccc12	> 10 µM
O=C(O)Cn1ccc2cc(OCc3cc(-c4ccc(C(F)(F)F)cc4)on3)ccc21	> 10 µM
